According to the supplement of paper PMC8728848:
The other results are listed elsewhere or left out.

Assays:
Test in all cases: glycan array binding signal (z-score within array); higher = stronger binding
Settings in all cases: glycan notation: IUPAC condensed, linker removed
[1] = molecular target: Gal(b1-4)GlcNAc(a1-6)Gal(b1-4)GlcNAc
How it was run: (§1)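 Glycan array data came from 3228 arrays in the Consortium for Functional Glycomics database, and only arrays with an available protein sequence were kept. Glycan names were put into IUPAC-condensed notation, and columns mapping to the same glycan were averaged. The binding signal is a within-array Z-score, averaged across arrays of one protein sequence run at different concentrations or buffers and across linkers. A negative Z-score can be read as non-binding.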

[2] = molecular target: Gal(b1-4)GlcNAc(b1-2)Man(a1-3)Man(b1-4)GlcNAc(b1-4)GlcNAc
How it was run: as §1

[3] = molecular target: Gal(b1-4)GlcNAc(b1-2)Man(a1-3)[Gal(b1-4)GlcNAc(b1-2)Man(a1-6)]Man(b1-4)GlcNAc(b1-4)GlcNAc
How it was run: as §1

[4] = molecular target: Gal(b1-4)GlcNAc(b1-2)Man(a1-3)[Gal(b1-4)GlcNAc(b1-2)Man(a1-6)]Man(b1-4)GlcNAc(b1-4)[Fuc(a1-6)]GlcNAc
How it was run: as §1

[5] = molecular target: Gal(b1-4)GlcNAc(b1-2)Man(a1-3)[GlcNAc(b1-2)Man(a1-6)]Man(b1-4)GlcNAc(b1-4)GlcNAc
How it was run: as §1

[6] = molecular target: Gal(b1-4)GlcNAc(b1-2)Man(a1-3)[Man(a1-6)]Man(b1-4)GlcNAc(b1-4)GlcNAc
How it was run: as §1

[7] = molecular target: Gal(b1-4)GlcNAc(b1-2)Man(a1-6)Man(b1-4)GlcNAc(b1-4)GlcNAc
How it was run: as §1

[8] = molecular target: Gal(b1-4)GlcNAc(b1-2)Man(a1-6)[GlcNAc(b1-2)Man(a1-3)]Man(b1-4)GlcNAc(b1-4)GlcNAc
How it was run: as §1

[9] = molecular target: Gal(b1-4)GlcNAc(b1-2)Man(a1-6)[Man(a1-3)]Man(b1-4)GlcNAc(b1-4)GlcNAc
How it was run: as §1

[10] = molecular target: Gal(b1-4)GlcNAc(b1-2)[Gal(b1-4)GlcNAc(b1-4)]Man(a1-3)[Gal(b1-4)GlcNAc(b1-2)Man(a1-6)]Man(b1-4)GlcNAc(b1-4)GlcNAc
How it was run: as §1

[11] = molecular target: Gal(b1-4)GlcNAc(b1-2)[Gal(b1-4)GlcNAc(b1-4)]Man(a1-3)[Gal(b1-4)GlcNAc(b1-2)[Gal(b1-4)GlcNAc(b1-6)]Man(a1-6)]Man(b1-4)GlcNAc(b1-4)GlcNAc
How it was run: as §1

[12] = molecular target: Gal(b1-4)GlcNAc(b1-3)Gal(b1-3)GlcNAc
How it was run: as §1

[13] = molecular target: Gal(b1-4)GlcNAc(b1-3)Gal(b1-4)Glc
How it was run: as §1

[14] = molecular target: Gal(b1-4)GlcNAc(b1-3)Gal(b1-4)GlcNAc
How it was run: as §1

[15] = molecular target: Gal(b1-4)GlcNAc(b1-3)Gal(b1-4)GlcNAc(b1-3)Gal(b1-4)GlcNAc
How it was run: as §1

[16] = molecular target: Gal(b1-4)GlcNAc(b1-3)Gal(b1-4)[Fuc(a1-3)]GlcNAc(b1-3)Gal(b1-4)[Fuc(a1-3)]GlcNAc
How it was run: as §1

[17] = molecular target: Gal(b1-4)GlcNAc(b1-3)GalNAc
How it was run: as §1

[18] = molecular target: Gal(b1-4)GlcNAc(b1-3)[Gal(b1-4)GlcNAc(b1-6)]Gal(b1-4)GlcNAc
How it was run: as §1

[19] = molecular target: Gal(b1-4)GlcNAc(b1-3)[Gal(b1-4)GlcNAc(b1-6)]GalNAc
How it was run: as §1

[20] = molecular target: Gal(b1-4)GlcNAc(b1-3)[GlcNAc(b1-6)]Gal(b1-4)GlcNAc
How it was run: as §1

[21] = molecular target: Gal(b1-4)GlcNAc(b1-6)Gal(b1-4)GlcNAc
How it was run: as §1

[22] = molecular target: Gal(b1-4)GlcNAc(b1-6)GalNAc
How it was run: as §1

[23] = molecular target: Gal(b1-4)GlcNAc(b1-6)[Gal(b1-3)]GalNAc
How it was run: as §1

Gal3S(b1-3)GalNAc = molecular target: Gal3S(b1-3)GalNAc
How it was run: as §1

Gal3S(b1-3)GlcNAc = molecular target: Gal3S(b1-3)GlcNAc
How it was run: as §1

[24] = molecular target: Gal3S(b1-3)[Fuc(a1-4)]GlcNAc
How it was run: as §1

Gal3S(b1-4)Glc = molecular target: Gal3S(b1-4)Glc
How it was run: as §1

Gal3S(b1-4)Glc6S = molecular target: Gal3S(b1-4)Glc6S
How it was run: as §1

Gal3S(b1-4)GlcNAc = molecular target: Gal3S(b1-4)GlcNAc
How it was run: as §1

Gal3S(b1-4)GlcNAc6S = molecular target: Gal3S(b1-4)GlcNAc6S
How it was run: as §1

[25] = molecular target: Gal3S(b1-4)[Fuc(a1-3)]Glc
How it was run: as §1

[26] = molecular target: Gal3S(b1-4)[Fuc(a1-3)]Glc6S
How it was run: as §1

Gal3S4S(b1-4)GlcNAc = molecular target: Gal3S4S(b1-4)GlcNAc
How it was run: as §1

Gal3S6S(b1-4)GlcNAc = molecular target: Gal3S6S(b1-4)GlcNAc
How it was run: as §1

Gal3S6S(b1-4)GlcNAc6S = molecular target: Gal3S6S(b1-4)GlcNAc6S
How it was run: as §1

Gal4S(b1-4)GlcNAc = molecular target: Gal4S(b1-4)GlcNAc
How it was run: as §1

Gal4S6S(b1-4)GlcNAc = molecular target: Gal4S6S(b1-4)GlcNAc
How it was run: as §1

Gal6S(b1-4)Glc = molecular target: Gal6S(b1-4)Glc
How it was run: as §1

Gal6S(b1-4)Glc6S = molecular target: Gal6S(b1-4)Glc6S
How it was run: as §1

Gal6S(b1-4)GlcNAc = molecular target: Gal6S(b1-4)GlcNAc
How it was run: as §1

Gal6S(b1-4)GlcNAc6S = molecular target: Gal6S(b1-4)GlcNAc6S
How it was run: as §1

GalNAc(a1-3)Gal = molecular target: GalNAc(a1-3)Gal
How it was run: as §1

GalNAc(a1-3)GalNAc = molecular target: GalNAc(a1-3)GalNAc
How it was run: as §1

[27] = molecular target: GalNAc(a1-3)GalNAc(a1-3)Gal(a1-4)Gal(b1-4)GlcNAc
How it was run: as §1

GalNAc(b1-3)Gal = molecular target: GalNAc(b1-3)Gal
How it was run: as §1

B1: Flo10 (Saccharomyces cerevisiae), P36170 (protein)
chain: MPVAARYIFLTGLFLLSVANVALGTTEACLPAGEKKNGMTINFYQYSLKDSSTYSNPSYMAYGYADAEKLGSVSGQTKLSIDYSIPCNGASDTCACSDDDATEYSASQVVPVKRGVKLCSDNTTLSSKTEKRENDDCDQGAAYWSSDLFGFYTTPTNVTVEMTGYFLPPKTGTYTFGFATVDDSAILSVGGNVAFECCKQEQPPITSTDFTINGIKPWNADAPTDIKGSTYMYAGYYYPIKIVYSNAVSWGTLPVSVVLPDGTEVNDDFEGYVFSFDDNATQAHCSVPNPAEHARTCVSSATSSWSSSEVCTECTETESTSYVTPYVTSSSWSSSEVCTECTETESTSTSTPYVTSSSSSSSEVCTECTETESTSYVTPYVSSSTAAANYTSSFSSSSEVCTECTETESTSTSTPYVTSSSWSSSEVCTECTETESTSYVTPYVSSSTAAANYTSSFSSSSEVCTECTETESTSTSTPYVTSSSSSSSEVCTECTETESTSYVTPYVSSSTAAANYTSSFSSSSEVCTECTETESTSTSTPYVTSSSWSSSEVCTECTETESTSYVTPYVSSSTAAANYTSSFSSSSEVCTECTETESTSTSTPYATSSTGTATSFTASTSNTMTSLVQTDTTVSFSLSSTVSEHTNAPTSSVESNASTFISSNKGSVKSYVTSSIHSITPMYPSNQTVTSSSVVSTPITSESSESSASVTILPSTITSEFKPSTMKTKVVSISSSPTNLITSYDTTSKDSTVGSSTSSVSLISSISLPSSYSASSEQIFHSSIVSSNGQALTSFSSTKVSSSESSESHRTSPTTSSESGIKSSGVEIESTSTSSFSFHETSTASTSVQISSQFVTPSSPISTVAPRSTGLNSQTESTNSSKETMSSENSASVMPSSSATSPKTGKVTSDETSSGFSRDRTTVYRMTSETPSTNEQTTLITVSSCESNSCSNTVSSAVVSTATTTINGITTEYTTWCPLSATELTTVSKLESEEKTTLITVTSCESGVCSETASPAIVSTATATVNDVVTVYSTWSPQATNKLAVSSDIENSASKASFVSEAAETKSISRNNNFVPTSGTTSIETHTTTTSNASENSDNVSASEAVSSKSVTNPVLISVSQQPRGTPASSMIGSSTASLEMSSYLGIANHLLTNSGISIFIASLLLAIV
glycan array binding signal (z-score) [1]: -0.829 | glycan array binding signal (z-score) [2]: -0.608 | glycan array binding signal (z-score) [3]: -0.515 | glycan array binding signal (z-score) [4]: 0.086 | glycan array binding signal (z-score) [5]: -0.642 | glycan array binding signal (z-score) [6]: 0.191 | glycan array binding signal (z-score) [7]: -0.416 | glycan array binding signal (z-score) [8]: 0.034 | glycan array binding signal (z-score) [9]: -0.673 | glycan array binding signal (z-score) [10]: -0.093 | glycan array binding signal (z-score) [11]: -0.666 | glycan array binding signal (z-score) [12]: 0.634 | glycan array binding signal (z-score) [13]: -0.23 | glycan array binding signal (z-score) [14]: -0.689 | glycan array binding signal (z-score) [15]: -0.604 | glycan array binding signal (z-score) [16]: 1.48 | glycan array binding signal (z-score) [17]: 0.523 | glycan array binding signal (z-score) [18]: -0.476 | glycan array binding signal (z-score) [19]: -0.633 | glycan array binding signal (z-score) [20]: 0.34 | glycan array binding signal (z-score) [21]: -0.713 | glycan array binding signal (z-score) [22]: 1.04 | glycan array binding signal (z-score) [23]: 0.242 | glycan array binding signal (z-score) (Gal3S(b1-3)GalNAc): -0.543 | glycan array binding signal (z-score) (Gal3S(b1-3)GlcNAc): -0.659 | glycan array binding signal (z-score) [24]: -0.698 | glycan array binding signal (z-score) (Gal3S(b1-4)Glc): 0.541 | glycan array binding signal (z-score) (Gal3S(b1-4)Glc6S): -0.401 | glycan array binding signal (z-score) (Gal3S(b1-4)GlcNAc): 0.143 | glycan array binding signal (z-score) (Gal3S(b1-4)GlcNAc6S): -0.013 | glycan array binding signal (z-score) [25]: 0.174 | glycan array binding signal (z-score) [26]: -0.042 | glycan array binding signal (z-score) (Gal3S4S(b1-4)GlcNAc): -0.551 | glycan array binding signal (z-score) (Gal3S6S(b1-4)GlcNAc): -0.234 | glycan array binding signal (z-score) (Gal3S6S(b1-4)GlcNAc6S): -0.023 | glycan array binding signal (z-score) (Gal4S(b1-4)GlcNAc): -0.526 | glycan array binding signal (z-score) (Gal4S6S(b1-4)GlcNAc): -0.042 | glycan array binding signal (z-score) (Gal6S(b1-4)Glc): -0.433 | glycan array binding signal (z-score) (Gal6S(b1-4)Glc6S): -0.635 | glycan array binding signal (z-score) (Gal6S(b1-4)GlcNAc): 0.486 | glycan array binding signal (z-score) (Gal6S(b1-4)GlcNAc6S): -0.171 | glycan array binding signal (z-score) (GalNAc(a1-3)Gal): -0.643 | glycan array binding signal (z-score) (GalNAc(a1-3)GalNAc): 0.641 | glycan array binding signal (z-score) [27]: 1.74 | glycan array binding signal (z-score) (GalNAc(b1-3)Gal): -0.02
